{"source": "the supplement of paper PMC8728848", "binders": {"B1": {"name": "RsaA-N-term (Caulobacter crescentus), P35828 (protein)", "chain": "MAYTTAQLVTAYTNANLGKAPDAATTLTLDAYATQTQTGGLSDAAALTNTLKLVNSTTAVAIQTYQFFTGVAPSAAGLDFLVDSTTNTNDLNDAYYSKFAQENRFINFSINLATGAGAGATAFAAAYTGVSYAQTVATAYDKIIGNAVATAAGVDVAAAVAFLSRQANIDYLTAFVRANTPFTAAADIDLAVKAALIGTILNAATVSGIGGYATATAAMINDLSDGALSTDNAAGVNLFTAYPSSGVSGSTLSLTTGTDTLTGTANNDTFVAGEVAGDGSGWSHPQFEKGG"}}, "assay_in_all_cases": "glycan array binding signal (z-score within array); higher = stronger binding", "conditions_in_all_cases": "glycan notation: IUPAC condensed, linker removed", "key": {"[1]": {"molecular_target": "Neu5Ac(a2-3)Gal(b1-4)GlcNAc(b1-3)[Neu5Ac(a2-3)Gal(b1-4)GlcNAc(b1-6)]GalNAc", "in_short": "(§1)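 Glycan array data came from 3228 arrays in the Consortium for Functional Glycomics database, and only arrays with an available protein sequence were kept. Glycan names were put into IUPAC-condensed notation, and columns mapping to the same glycan were averaged. The binding signal is a within-array Z-score, averaged across arrays of one protein sequence run at different concentrations or buffers and across linkers. A negative Z-score can be read as non-binding.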"}, "[2]": {"molecular_target": "Neu5Ac(a2-3)Gal(b1-4)GlcNAc(b1-6)GalNAc", "in_short": "as §1"}, "[3]": {"molecular_target": "Neu5Ac(a2-3)Gal(b1-4)GlcNAc(b1-6)[Gal(b1-3)]GalNAc", "in_short": "as §1"}, "[4]": {"molecular_target": "Neu5Ac(a2-3)Gal(b1-4)GlcNAc(b1-6)[Neu5Ac(a2-3)Gal(b1-3)]GalNAc", "in_short": "as §1"}, "[5]": {"molecular_target": "Neu5Ac(a2-3)Gal(b1-4)GlcNAc6S", "in_short": "as §1"}, "[6]": {"molecular_target": "Neu5Ac(a2-3)Gal(b1-4)[Fuc(a1-3)]GlcNAc", "in_short": "as §1"}, "[7]": {"molecular_target": "Neu5Ac(a2-3)Gal(b1-4)[Fuc(a1-3)]GlcNAc(b1-2)Man", "in_short": "as §1"}, "[8]": {"molecular_target": "Neu5Ac(a2-3)Gal(b1-4)[Fuc(a1-3)]GlcNAc(b1-3)Gal", "in_short": "as §1"}, "[9]": {"molecular_target": "Neu5Ac(a2-3)Gal(b1-4)[Fuc(a1-3)]GlcNAc(b1-3)Gal(b1-4)GlcNAc", "in_short": "as §1"}, "[10]": {"molecular_target": "Neu5Ac(a2-3)Gal(b1-4)[Fuc(a1-3)]GlcNAc(b1-3)Gal(b1-4)[Fuc(a1-3)]GlcNAc(b1-3)Gal(b1-4)[Fuc(a1-3)]GlcNAc", "in_short": "as §1"}, "[11]": {"molecular_target": "Neu5Ac(a2-3)Gal(b1-4)[Fuc(a1-3)]GlcNAc(b1-3)GalNAc", "in_short": "as §1"}, "[12]": {"molecular_target": "Neu5Ac(a2-3)Gal(b1-4)[Fuc(a1-3)]GlcNAc(b1-6)[Gal(b1-3)]GalNAc", "in_short": "as §1"}, "[13]": {"molecular_target": "Neu5Ac(a2-3)Gal(b1-4)[Fuc(a1-3)]GlcNAc(b1-6)[Neu5Ac(a2-3)Gal(b1-3)]GalNAc", "in_short": "as §1"}, "[14]": {"molecular_target": "Neu5Ac(a2-3)Gal(b1-4)[Fuc(a1-3)]GlcNAc6S", "in_short": "as §1"}, "[15]": {"molecular_target": "Neu5Ac(a2-3)Gal6S(b1-4)GlcNAc", "in_short": "as §1"}, "[16]": {"molecular_target": "Neu5Ac(a2-3)Gal6S(b1-4)[Fuc(a1-3)]GlcNAc", "in_short": "as §1"}, "[17]": {"molecular_target": "Neu5Ac(a2-3)GalNAc", "in_short": "as §1"}, "[18]": {"molecular_target": "Neu5Ac(a2-3)GalNAc(b1-4)GlcNAc", "in_short": "as §1"}, "[19]": {"molecular_target": "Neu5Ac(a2-3)[GalNAc(b1-4)]Gal(b1-4)Glc", "in_short": "as §1"}, "[20]": {"molecular_target": "Neu5Ac(a2-3)[GalNAc(b1-4)]Gal(b1-4)GlcNAc", "in_short": "as §1"}, "[21]": {"molecular_target": "Neu5Ac(a2-3)[GalNAc(b1-4)]Gal(b1-4)GlcNAc(b1-3)GalNAc", "in_short": "as §1"}, "[22]": {"molecular_target": "Neu5Ac(a2-3)[Neu5Ac(a2-6)]GalNAc", "in_short": "as §1"}, "[23]": {"molecular_target": "Neu5Ac(a2-6)Gal", "in_short": "as §1"}, "[24]": {"molecular_target": "Neu5Ac(a2-6)Gal(b1-3)GlcNAc(b1-3)[Gal(b1-4)GlcNAc(b1-6)]Gal(b1-4)Glc", "in_short": "as §1"}, "[25]": {"molecular_target": "Neu5Ac(a2-6)Gal(b1-4)Glc", "in_short": "as §1"}, "[26]": {"molecular_target": "Neu5Ac(a2-6)Gal(b1-4)GlcNAc", "in_short": "as §1"}, "[27]": {"molecular_target": "Neu5Ac(a2-6)Gal(b1-4)GlcNAc(b1-2)Man", "in_short": "as §1"}, "[28]": {"molecular_target": "Neu5Ac(a2-6)Gal(b1-4)GlcNAc(b1-2)Man(a1-3)Man(b1-4)GlcNAc(b1-4)GlcNAc", "in_short": "as §1"}, "[29]": {"molecular_target": "Neu5Ac(a2-6)Gal(b1-4)GlcNAc(b1-2)Man(a1-3)[Gal(b1-4)GlcNAc(b1-2)Man(a1-6)]Man(b1-4)GlcNAc(b1-4)GlcNAc", "in_short": "as §1"}, "[30]": {"molecular_target": "Neu5Ac(a2-6)Gal(b1-4)GlcNAc(b1-2)Man(a1-3)[GlcNAc(b1-2)Man(a1-6)]Man(b1-4)GlcNAc(b1-4)GlcNAc", "in_short": "as §1"}, "[31]": {"molecular_target": "Neu5Ac(a2-6)Gal(b1-4)GlcNAc(b1-2)Man(a1-3)[GlcNAc(b1-4)][Neu5Ac(a2-6)Gal(b1-4)GlcNAc(b1-2)Man(a1-6)]Man(b1-4)GlcNAc(b1-4)GlcNAc", "in_short": "as §1"}}, "note": "This is one part of the list.", "data": [{"binder": "B1", "values": [{"measurement": "glycan array binding signal (z-score)", "setting": "[1]", "value": -0.25}, {"measurement": "glycan array binding signal (z-score)", "setting": "[2]", "value": -0.037}, {"measurement": "glycan array binding signal (z-score)", "setting": "[3]", "value": -0.144}, {"measurement": "glycan array binding signal (z-score)", "setting": "[4]", "value": 1.32}, {"measurement": "glycan array binding signal (z-score)", "setting": "[5]", "value": 0.853}, {"measurement": "glycan array binding signal (z-score)", "setting": "[6]", "value": -0.885}, {"measurement": "glycan array binding signal (z-score)", "setting": "[7]", "value": 0.103}, {"measurement": "glycan array binding signal (z-score)", "setting": "[8]", "value": -0.573}, {"measurement": "glycan array binding signal (z-score)", "setting": "[9]", "value": -0.577}, {"measurement": "glycan array binding signal (z-score)", "setting": "[10]", "value": 0.776}, {"measurement": "glycan array binding signal (z-score)", "setting": "[11]", "value": 0.296}, {"measurement": "glycan array binding signal (z-score)", "setting": "[12]", "value": 0.034}, {"measurement": "glycan array binding signal (z-score)", "setting": "[13]", "value": -0.11}, {"measurement": "glycan array binding signal (z-score)", "setting": "[14]", "value": -0.677}, {"measurement": "glycan array binding signal (z-score)", "setting": "[15]", "value": -1.01}, {"measurement": "glycan array binding signal (z-score)", "setting": "[16]", "value": -0.538}, {"measurement": "glycan array binding signal (z-score)", "setting": "[17]", "value": -0.52}, {"measurement": "glycan array binding signal (z-score)", "setting": "[18]", "value": -0.215}, {"measurement": "glycan array binding signal (z-score)", "setting": "[19]", "value": -0.84}, {"measurement": "glycan array binding signal (z-score)", "setting": "[20]", "value": -0.146}, {"measurement": "glycan array binding signal (z-score)", "setting": "[21]", "value": -1.15}, {"measurement": "glycan array binding signal (z-score)", "setting": "[22]", "value": 0.104}, {"measurement": "glycan array binding signal (z-score)", "setting": "[23]", "value": -0.678}, {"measurement": "glycan array binding signal (z-score)", "setting": "[24]", "value": -0.614}, {"measurement": "glycan array binding signal (z-score)", "setting": "[25]", "value": -0.143}, {"measurement": "glycan array binding signal (z-score)", "setting": "[26]", "value": -0.808}, {"measurement": "glycan array binding signal (z-score)", "setting": "[27]", "value": -0.33}, {"measurement": "glycan array binding signal (z-score)", "setting": "[28]", "value": -0.875}, {"measurement": "glycan array binding signal (z-score)", "setting": "[29]", "value": -0.036}, {"measurement": "glycan array binding signal (z-score)", "setting": "[30]", "value": -1.17}, {"measurement": "glycan array binding signal (z-score)", "setting": "[31]", "value": 0.969}]}]}
